This note sets out measurements from publication PMC9927946.

By UniProt entry, the sequences of proteins in these tests, tags left out.
UniProt P61081: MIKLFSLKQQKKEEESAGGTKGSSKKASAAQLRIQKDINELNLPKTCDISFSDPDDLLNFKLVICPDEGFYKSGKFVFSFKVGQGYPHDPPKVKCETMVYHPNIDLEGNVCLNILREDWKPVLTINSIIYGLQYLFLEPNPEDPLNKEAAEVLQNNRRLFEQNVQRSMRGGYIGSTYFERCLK

No constants are given. Whether binding was seen depends on the method and setting. Binding seen in cells or lysates may run through a third protein. These calls come from enrichment with a bait or labelling near it, and not all partners need be listed.

The target of assay [1] is SHP2 (bait of the co-IP for mass analysis) (UniProt Q06124). In words: affinity purification with mass spectrometry; mass analysis of SHP2 co-IP proteins (Supplemental Figure 2B); cells not given.
Assay [2] deals with SHP2, bait of the co-immunoprecipitate analysed by mass spectrometry (human (in HEK293T)) (UniProt Q06124). In words: affinity purification with mass spectrometry; SHP2 co-immunoprecipitate from lysates of HEK293T cells; SDS-PAGE, in-gel digestion, mass spectrometry (Maxquant).

Turning to “NEDD8-conjugating E2 UBE2M (from UniProt P61081 1-183) (enzyme)”, the binding result in assay [1] is recorded as “binds”.
In the case of “UBE2M (NEDD8-conjugating E2) (from UniProt P61081 1-183) (enzyme)”, the binding result in assay [2] is on record as “binds”.
